Results as given in paper PMC3749939.
Where two headings read alike, the source gives them in different places. These are yes or no findings as the source states them, for the method shown. In cells and extracts the contact can be indirect. Some entries that bind do so weakly or less than the wild type.

Sequences of proteins named here, by UniProt entry; tags and fusion partners are left off. A change or cut given only in a name is not applied to a line headed by its entry.
UniProt P0C0S6: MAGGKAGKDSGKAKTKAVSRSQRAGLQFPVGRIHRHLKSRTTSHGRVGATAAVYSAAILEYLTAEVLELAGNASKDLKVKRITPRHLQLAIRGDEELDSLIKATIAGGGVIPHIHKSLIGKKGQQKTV
UniProt P60122: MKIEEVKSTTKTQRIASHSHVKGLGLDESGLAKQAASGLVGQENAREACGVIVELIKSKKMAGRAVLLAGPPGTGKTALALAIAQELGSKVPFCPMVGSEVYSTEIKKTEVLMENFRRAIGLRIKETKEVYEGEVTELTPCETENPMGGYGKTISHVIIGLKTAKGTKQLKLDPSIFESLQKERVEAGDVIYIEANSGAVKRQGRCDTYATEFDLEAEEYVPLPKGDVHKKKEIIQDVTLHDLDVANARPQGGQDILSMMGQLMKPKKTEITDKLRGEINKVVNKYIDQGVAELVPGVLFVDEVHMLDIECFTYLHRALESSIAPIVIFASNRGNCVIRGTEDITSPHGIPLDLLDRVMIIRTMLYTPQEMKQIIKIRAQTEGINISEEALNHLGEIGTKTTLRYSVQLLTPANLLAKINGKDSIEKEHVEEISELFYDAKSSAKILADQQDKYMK

B1: NAP1L1 (protein, UniProt P28656 1-391)
chain: MADIDNKEQSELDQDLEDVEEVEEEETGEETKIKARQLTVQMMQNPQILAALQERLDGLVDTPTGYIESLPKVVKRRVNALKNLQVKCAQIEAKFYEEVHDLERKYAVLYQPLFDKRFEIINAIYEPTEEECEWKPDEEDEVSEELKEKAKIEDEKKDEEKEDPKGIPEFWLTVFKNVDLLSDMVQEHDEPILKHLKDIKVKFSDAGQPMSFVLEFHFEPNDYFTNEVLTKTYRMRSEPDDSDPFSFDGPEIMGCTGCQIDWKKGKNVTLKTIKKKQKHKGRGTVRTVTKTVSNDSFFNFFAPPEVPENGDLDDDAEAILAADFEIGHFLRERIIPRSVLYFTGEAIEDDDDDYDEEGEEADEEGEEEGDEENDPDYDPKKDQNPAECKQQ

Tests used:
[1] = molecular target: wild-type H2A.Z-YFP (mouse) (UniProt P0C0S6); assay: co-IP; immunoprecipitation with GFP antibodies of the YFP-tagged histone from dox-induced transgenic ESCs (endogenous H2A.Z knockdown background), immunoblot of the partners; uninduced cells (No DOX) as negative controls; densitometry in ImageJ
[2] = molecular target: wild-type H2A.Z-YFP (mouse) (UniProt P0C0S6); assay: as above; remark: listed apart in the source

Row | Molecule | binding [1] | binding [2]
1 | RUVBL1 (from UniProt P60122 1-456) | binds | –
2 | B1 | – | binds
